From patent publication US20060251652A1 (APPLIED MOLECULAR EVOLUTION, published 2006)
No constants are given. Whether binding was seen depends on the method and setting. Some binding calls cover weakened binding; strength is not graded here.

Biological target: T1, human CD20 (human, UniProt P11836 1-297)
T1 construct: whole, on cells; Always presented on cells (fixed Ramos cells in ELISA; live cells in flow cytometry and KinExA-type assays); also called hCD20; Bp35
T1 sequence (looked up): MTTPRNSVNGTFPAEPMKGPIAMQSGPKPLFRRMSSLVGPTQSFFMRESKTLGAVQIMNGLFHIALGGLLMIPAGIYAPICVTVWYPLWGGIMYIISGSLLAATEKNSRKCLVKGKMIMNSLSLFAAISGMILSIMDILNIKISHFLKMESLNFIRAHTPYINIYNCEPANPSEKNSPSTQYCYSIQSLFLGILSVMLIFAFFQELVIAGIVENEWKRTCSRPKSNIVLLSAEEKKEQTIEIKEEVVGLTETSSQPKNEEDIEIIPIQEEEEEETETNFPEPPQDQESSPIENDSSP
Experiment: ELISA on formalin-fixed Ramos cells, on-rate format: 5 min with Fab and 5 min with anti-His6 peroxidase, OD 450

B1: 2C2 (Fab, V domains shown)
VH: EVQLVQSGAEVKKPGESLKISCKGSGYTFTSYNMHWVRQMPGKGLEWMGAIYPLNGDTSYNQKFKLQVTISADKSISTAYLQWSSLKASDTAMYYCARSTYVGGDWTFDVWGKGTTVTVSS
VL: EIVLTQSPGTLSLSPGERATLSCRASSSVSYIHWYQQKPGQAPRLLIYATSNLASGIPDRFSGSGSGTDFTLTISRLEPEDFAVYYCQQWLSNPPTFGQGTKLEIK
  binding: binds
